Reference: PubChem BioAssay AID504804 (Drosophila RNAi Screening Center, 2011)
The screen tested about 19,000 reagents; shown is an unselected part of those with a known target gene and a result. Over the whole deposit, 47 (0.25%) were called active. 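Signals are raw, not normalised; exact z-scores behind calls not deposited; actives needed confirmation, so some wells reaching 2 SD are inactive.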 Entries without a mark were called inactive. A plus sign joins genes that one reagent is predicted to hit. Reagent sequences are not shown.

- Test: 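dsRNAs that improve Kc cell survival under doxorubicin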 (primary screen)
- System: Drosophila Kc cells
- Reagents: long dsRNA against Drosophila genes, 0.5 µg dsRNA per well
- Timing: 96 h (48 h knock-down, then 48 h drug)
- Challenge: doxorubicin 5 µg/ml for 48 h, added 48 h after dsRNA
- Detection: 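Luminescent ATP counts per replicate, not normalised, reflecting viable cells after 48 h dsRNA knock-down followed by 48 h of 5 µg/ml doxorubicin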
- Reading the numbers: raw ATP luminescence: higher = more viable cells, protection from doxorubicin
- Rule for the call: 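z-score of 2 or more over plate mean in both duplicates, retained only when retests and separate dsRNAs confirm the protection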

CG9257 [DRSC03173] → raw ATP luminescence, replicate 1 = 72937; raw ATP luminescence, replicate 2 = 69783
tkv + CR14033 + tRNA:Asp-GTC-2-1 + 1 more [DRSC00861] → raw ATP luminescence, replicate 1 = 2.14e5; raw ATP luminescence, replicate 2 = 3.18e5
oc [DRSC18808] → raw ATP luminescence, replicate 1 = 41400; raw ATP luminescence, replicate 2 = 44550
Eip63F-1 [DRSC08072] → raw ATP luminescence, replicate 1 = 1.89e5; raw ATP luminescence, replicate 2 = 1.44e5
Eip63F-1 [DRSC08659] → SD above plate mean = 2 to 3 SD above plate mean (active)
inaF-B + inaF-D + inaF-C + 1 more [DRSC20342] → raw ATP luminescence, replicate 1 = 3.87e5; raw ATP luminescence, replicate 2 = 3.78e5
pyd3 [DRSC15459] → raw ATP luminescence, replicate 1 = 39983; raw ATP luminescence, replicate 2 = 44713
Raf [DRSC18821] → raw ATP luminescence, replicate 1 = 42520; raw ATP luminescence, replicate 2 = 59120
CG10616 [DRSC09750] → raw ATP luminescence, replicate 1 = 40077; raw ATP luminescence, replicate 2 = 43360
Ugt36A1 + CG15418 [DRSC00432] → raw ATP luminescence, replicate 1 = 21040; raw ATP luminescence, replicate 2 = 34973
CG4372 [DRSC04466] → raw ATP luminescence, replicate 1 = 67010; raw ATP luminescence, replicate 2 = 76510
CG16865 [DRSC01904] → raw ATP luminescence, replicate 1 = 70093; raw ATP luminescence, replicate 2 = 74580
